According to PMC11564117:
No constants are given. Whether binding was seen depends on the method and setting. Tags and fused reporters may be left off the sequences shown.

Target: OPTN-GST (human), Q96CV9
Assay: microscopy-based bead assay; Fig. 6e, Extended Data Fig. 10: GST, OPTN-GST or GST–NAP1 on glutathione beads; EGFP–TBK1 WT, KD or E696K 250 nM; 25 mM Tris-HCl pH 7.4, 150 mM NaCl, 1 mM DTT; 30 min; Extended Data Fig. 10 with and without ATP/MgCl2 (interaction weakened with ATP/MgCl2); confocal imaging; both purified
Details: remark: other sources report otherwise

B1: EGFP–TBK1 E696K mutant, Q9UHD2 1-729 (enzyme)
chain: MQSTSNHLWLLSDILGQGATANVFRGRHKKTGDLFAIKVFNNISFLRPVDVQMREFEVLKKLNHKNIVKLFAIEEETTTRHKVLIMEFCPCGSLYTVLEEPSNAYGLPESEFLIVLRDVVGGMNHLRENGIVHRDIKPGNIMRVIGEDGQSVYKLTDFGAARELEDDEQFVSLYGTEEYLHPDMYERAVLRKDHQKKYGATVDLWSIGVTFYHAATGSLPFRPFEGPRRNKEVMYKIITGKPSGAISGVQKAENGPIDWSGDMPVSCSLSRGLQVLLTPVLANILEADQEKCWGFDQFFAETSDILHRMVIHVFSLQQMTAHKIYIHSYNTATIFHELVYKQTKIISSNQELIYEGRRLVLEPGRLAQHFPKTTEENPIFVVSREPLNTIGLIYEKISLPKVHPRYDLDGDASMAKAITGVVCYACRIASTLLLYQELMRKGIRWLIELIKDDYNETVHKKTEVVITLDFCIRNIEKTVKVYEKLMKINLEAAELGEISDIHTKLLRLSSSQGTIETSLQDIDSRLSPGGSLADAWAHQEGTHPKDRNVEKLQVLLNCMTEIYYQFKKDKAERRLAYNEEQIHKFDKQKLYYHATKAMTHFTDECVKKYEAFLNKSEEWIRKMLHLRKQLLSLTNQCFDIEEEVSKYQEYTNELQETLPQKMFTASSGIKHTMTPIYPSSNTLVEMTLGMKKLKEKMEGVVKELAENNHILERFGSLTMDGGLRNVDCL
- binding: no binding (tested: 250 nM)
